Experimental findings from paper PMC6805634 are described below.

Sequences of proteins named here, by UniProt entry; tags and fusion partners are left off. A change or cut given only in a name is not applied to a line headed by its entry.
UniProt Q15910: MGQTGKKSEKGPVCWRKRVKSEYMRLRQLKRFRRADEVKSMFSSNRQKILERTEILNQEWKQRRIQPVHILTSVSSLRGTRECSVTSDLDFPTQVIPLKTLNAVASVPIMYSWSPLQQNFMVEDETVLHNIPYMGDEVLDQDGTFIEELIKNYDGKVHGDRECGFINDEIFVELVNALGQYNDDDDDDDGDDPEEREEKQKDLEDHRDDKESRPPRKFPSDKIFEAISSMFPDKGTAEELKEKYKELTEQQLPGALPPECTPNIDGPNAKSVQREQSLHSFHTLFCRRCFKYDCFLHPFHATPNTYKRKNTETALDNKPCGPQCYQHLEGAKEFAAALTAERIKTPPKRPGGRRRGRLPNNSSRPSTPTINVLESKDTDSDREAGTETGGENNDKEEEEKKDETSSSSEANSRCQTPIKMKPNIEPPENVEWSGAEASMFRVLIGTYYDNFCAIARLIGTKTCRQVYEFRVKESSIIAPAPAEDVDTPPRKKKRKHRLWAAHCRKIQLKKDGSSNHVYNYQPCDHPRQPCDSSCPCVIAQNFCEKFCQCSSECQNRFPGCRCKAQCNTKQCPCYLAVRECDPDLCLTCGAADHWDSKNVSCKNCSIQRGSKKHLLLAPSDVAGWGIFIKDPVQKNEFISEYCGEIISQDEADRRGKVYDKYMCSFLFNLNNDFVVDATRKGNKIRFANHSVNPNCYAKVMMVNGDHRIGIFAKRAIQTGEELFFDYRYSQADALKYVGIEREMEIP
UniProt Q01196: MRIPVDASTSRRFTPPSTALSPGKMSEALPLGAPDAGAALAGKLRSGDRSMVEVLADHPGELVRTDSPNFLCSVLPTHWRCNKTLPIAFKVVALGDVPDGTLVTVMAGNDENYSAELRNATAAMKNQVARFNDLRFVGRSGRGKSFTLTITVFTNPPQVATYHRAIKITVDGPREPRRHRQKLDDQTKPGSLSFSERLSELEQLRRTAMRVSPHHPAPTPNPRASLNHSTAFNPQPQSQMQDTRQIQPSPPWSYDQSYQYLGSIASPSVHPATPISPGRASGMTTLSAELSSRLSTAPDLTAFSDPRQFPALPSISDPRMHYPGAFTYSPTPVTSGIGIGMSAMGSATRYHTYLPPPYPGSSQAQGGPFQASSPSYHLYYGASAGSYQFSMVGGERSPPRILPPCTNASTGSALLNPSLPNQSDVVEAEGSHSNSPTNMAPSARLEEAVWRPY
UniProt Q8IXJ9: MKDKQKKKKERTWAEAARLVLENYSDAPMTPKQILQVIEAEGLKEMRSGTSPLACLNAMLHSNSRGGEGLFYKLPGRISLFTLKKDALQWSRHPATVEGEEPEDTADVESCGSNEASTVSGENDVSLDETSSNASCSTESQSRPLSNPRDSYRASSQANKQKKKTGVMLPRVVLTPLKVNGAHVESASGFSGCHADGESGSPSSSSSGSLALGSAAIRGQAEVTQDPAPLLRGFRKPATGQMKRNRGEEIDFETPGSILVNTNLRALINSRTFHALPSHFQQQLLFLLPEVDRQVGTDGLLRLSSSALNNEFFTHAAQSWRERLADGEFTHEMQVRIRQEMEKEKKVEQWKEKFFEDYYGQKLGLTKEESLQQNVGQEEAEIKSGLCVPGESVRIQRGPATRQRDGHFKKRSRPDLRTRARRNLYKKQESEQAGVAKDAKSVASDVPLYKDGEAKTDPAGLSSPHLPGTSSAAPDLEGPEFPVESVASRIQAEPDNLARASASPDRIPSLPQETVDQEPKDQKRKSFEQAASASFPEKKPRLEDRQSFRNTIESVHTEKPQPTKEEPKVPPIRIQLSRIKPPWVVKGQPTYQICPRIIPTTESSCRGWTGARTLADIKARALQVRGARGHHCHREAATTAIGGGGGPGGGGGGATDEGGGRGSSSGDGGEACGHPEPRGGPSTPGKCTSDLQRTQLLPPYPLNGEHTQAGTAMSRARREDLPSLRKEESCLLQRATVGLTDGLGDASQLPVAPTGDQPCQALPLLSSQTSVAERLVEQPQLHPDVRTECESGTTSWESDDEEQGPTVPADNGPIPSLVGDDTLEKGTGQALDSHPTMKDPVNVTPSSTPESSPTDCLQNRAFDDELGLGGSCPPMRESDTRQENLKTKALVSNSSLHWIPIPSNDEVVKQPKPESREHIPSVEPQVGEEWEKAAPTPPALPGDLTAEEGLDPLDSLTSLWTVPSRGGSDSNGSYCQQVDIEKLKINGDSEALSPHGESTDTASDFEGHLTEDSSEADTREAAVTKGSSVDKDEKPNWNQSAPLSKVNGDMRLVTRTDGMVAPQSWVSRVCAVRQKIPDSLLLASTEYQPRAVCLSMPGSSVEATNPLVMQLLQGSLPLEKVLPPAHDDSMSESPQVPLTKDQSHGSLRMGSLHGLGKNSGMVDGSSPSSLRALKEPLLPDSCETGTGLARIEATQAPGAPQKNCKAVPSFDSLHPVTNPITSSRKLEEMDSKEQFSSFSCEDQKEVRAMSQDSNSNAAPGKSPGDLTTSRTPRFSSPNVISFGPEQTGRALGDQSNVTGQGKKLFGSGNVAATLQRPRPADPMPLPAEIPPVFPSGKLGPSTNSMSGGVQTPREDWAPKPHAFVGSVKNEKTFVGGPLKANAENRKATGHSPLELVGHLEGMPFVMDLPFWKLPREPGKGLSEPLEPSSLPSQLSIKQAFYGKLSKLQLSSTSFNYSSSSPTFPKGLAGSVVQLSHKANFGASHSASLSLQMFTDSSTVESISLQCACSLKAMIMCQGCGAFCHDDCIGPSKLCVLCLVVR
UniProt Q16665: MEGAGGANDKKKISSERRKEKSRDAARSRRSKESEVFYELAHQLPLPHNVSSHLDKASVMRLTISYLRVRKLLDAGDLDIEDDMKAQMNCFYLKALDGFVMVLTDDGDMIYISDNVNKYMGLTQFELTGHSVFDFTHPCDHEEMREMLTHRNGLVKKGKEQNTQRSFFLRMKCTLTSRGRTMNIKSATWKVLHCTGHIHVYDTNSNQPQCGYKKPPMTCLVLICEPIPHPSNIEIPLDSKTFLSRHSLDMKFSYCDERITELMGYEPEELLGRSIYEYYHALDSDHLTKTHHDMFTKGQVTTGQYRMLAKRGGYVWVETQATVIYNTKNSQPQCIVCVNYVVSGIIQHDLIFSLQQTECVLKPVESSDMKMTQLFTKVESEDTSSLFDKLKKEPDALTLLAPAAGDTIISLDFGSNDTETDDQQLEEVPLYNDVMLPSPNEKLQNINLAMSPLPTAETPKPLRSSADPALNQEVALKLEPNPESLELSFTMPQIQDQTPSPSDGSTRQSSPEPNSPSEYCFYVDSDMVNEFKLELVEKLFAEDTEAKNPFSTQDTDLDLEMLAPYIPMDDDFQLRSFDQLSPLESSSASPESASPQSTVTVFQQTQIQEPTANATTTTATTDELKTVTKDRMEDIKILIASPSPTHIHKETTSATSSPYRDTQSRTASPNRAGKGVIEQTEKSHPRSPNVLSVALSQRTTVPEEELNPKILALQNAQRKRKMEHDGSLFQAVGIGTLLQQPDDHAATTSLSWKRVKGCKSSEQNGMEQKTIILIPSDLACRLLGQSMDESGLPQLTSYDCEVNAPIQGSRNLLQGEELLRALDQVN

No constants are given. Whether binding was seen depends on the method and setting. Binding seen in cells or lysates may run through a third protein. Some binding calls cover weakened binding; strength is not graded here.

Experiment [1] has as its target endogenous EZH2 (K562) (human (endogenous in K562)) (UniProt Q15910). Briefly: co-IP; endogenous proteins, K562 whole-cell extract; non-immune IgG as negative control.
A further experiment deals with FLAG-RUNX1-WT (human) (UniProt Q01196). The experiment in a line: co-IP; FLAG-tagged RUNX1-WT or RUNX1-R135T transiently expressed in HEK293T or stably expressed in K562 cells, treated with 100 μM CoCl2 for 24 h; immunoprecipitation with anti-FLAG M2 affinity gel, immunoblot with HIF-1α, RUNX1 and FLAG antibodies; EV control. Background: A western blot detects proteins with antibodies after separation by electrophoresis.

For the next experiment, the target named is FLAG-RUNX1-R135T (human) (UniProt Q01196). The experiment is described as above.

On to “endogenous ASXL1 protein (K562) (from UniProt Q8IXJ9 1-1541)”, for which the binding result in experiment [1] is “binds”. Turning to “Hypoxia-inducible factor-1α (from UniProt Q16665 1-826)”, the binding result with FLAG-RUNX1-WT (human) and in the experiment with FLAG-RUNX1-R135T (human) was “binds” throughout.
